Reference: paper doi:10.1101/2020.10.29.359851
These are yes or no findings as the source states them, for the method shown. Binding seen in cells or lysates may run through a third protein. Some results given as binding are weak or reduced against the parent protein; the word gives no strength. Tags and fused reporters may be left off the sequences shown.

By UniProt entry, the sequences of proteins in these tests, tags left out. Where a name states a change or a piece, a line headed by the entry shows the natural chain unless it says otherwise.
UniProt P06213: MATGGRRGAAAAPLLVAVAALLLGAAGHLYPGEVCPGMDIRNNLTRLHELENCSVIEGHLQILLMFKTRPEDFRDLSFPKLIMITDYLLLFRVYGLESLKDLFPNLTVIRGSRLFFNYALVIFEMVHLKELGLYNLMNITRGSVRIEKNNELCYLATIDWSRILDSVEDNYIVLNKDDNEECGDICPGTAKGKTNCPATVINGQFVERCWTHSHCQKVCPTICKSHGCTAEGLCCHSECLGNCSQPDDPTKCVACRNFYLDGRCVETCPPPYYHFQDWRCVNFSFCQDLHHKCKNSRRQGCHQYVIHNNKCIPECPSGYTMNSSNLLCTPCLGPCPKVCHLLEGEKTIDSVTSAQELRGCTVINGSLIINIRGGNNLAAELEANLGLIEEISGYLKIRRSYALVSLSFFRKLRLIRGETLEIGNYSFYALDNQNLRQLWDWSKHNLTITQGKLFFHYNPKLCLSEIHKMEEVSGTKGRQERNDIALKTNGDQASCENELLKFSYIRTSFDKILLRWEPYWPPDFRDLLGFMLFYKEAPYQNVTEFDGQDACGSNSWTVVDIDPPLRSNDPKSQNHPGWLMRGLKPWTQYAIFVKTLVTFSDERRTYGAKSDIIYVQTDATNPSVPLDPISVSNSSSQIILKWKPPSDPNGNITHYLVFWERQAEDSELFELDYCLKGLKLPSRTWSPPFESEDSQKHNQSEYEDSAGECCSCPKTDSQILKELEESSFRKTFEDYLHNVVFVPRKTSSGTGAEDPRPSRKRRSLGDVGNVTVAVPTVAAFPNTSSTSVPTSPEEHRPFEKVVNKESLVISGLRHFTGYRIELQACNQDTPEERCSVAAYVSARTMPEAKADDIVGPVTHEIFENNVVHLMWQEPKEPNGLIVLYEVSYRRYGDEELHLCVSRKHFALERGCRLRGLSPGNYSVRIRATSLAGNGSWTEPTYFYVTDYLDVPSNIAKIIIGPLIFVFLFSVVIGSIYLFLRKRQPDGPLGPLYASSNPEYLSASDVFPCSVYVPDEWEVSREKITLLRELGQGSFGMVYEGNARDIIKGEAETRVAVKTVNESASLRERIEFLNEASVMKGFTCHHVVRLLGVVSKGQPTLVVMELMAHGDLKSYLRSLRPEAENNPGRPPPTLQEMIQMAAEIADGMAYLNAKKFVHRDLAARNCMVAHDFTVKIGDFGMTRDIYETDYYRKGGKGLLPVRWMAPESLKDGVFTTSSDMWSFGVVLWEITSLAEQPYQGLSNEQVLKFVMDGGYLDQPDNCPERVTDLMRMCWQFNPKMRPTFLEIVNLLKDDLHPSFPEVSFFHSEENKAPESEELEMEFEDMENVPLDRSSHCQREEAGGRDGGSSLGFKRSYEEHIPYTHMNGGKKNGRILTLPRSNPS

Experiments:
[1] = molecular target: T1, 3xFlag-BBS10-GFP (human BBS10, expressed from CD615-3xFlag-BBS10-GFP) (human) (UniProt Q8TAM1); experiment: co-IP
T1 sequence: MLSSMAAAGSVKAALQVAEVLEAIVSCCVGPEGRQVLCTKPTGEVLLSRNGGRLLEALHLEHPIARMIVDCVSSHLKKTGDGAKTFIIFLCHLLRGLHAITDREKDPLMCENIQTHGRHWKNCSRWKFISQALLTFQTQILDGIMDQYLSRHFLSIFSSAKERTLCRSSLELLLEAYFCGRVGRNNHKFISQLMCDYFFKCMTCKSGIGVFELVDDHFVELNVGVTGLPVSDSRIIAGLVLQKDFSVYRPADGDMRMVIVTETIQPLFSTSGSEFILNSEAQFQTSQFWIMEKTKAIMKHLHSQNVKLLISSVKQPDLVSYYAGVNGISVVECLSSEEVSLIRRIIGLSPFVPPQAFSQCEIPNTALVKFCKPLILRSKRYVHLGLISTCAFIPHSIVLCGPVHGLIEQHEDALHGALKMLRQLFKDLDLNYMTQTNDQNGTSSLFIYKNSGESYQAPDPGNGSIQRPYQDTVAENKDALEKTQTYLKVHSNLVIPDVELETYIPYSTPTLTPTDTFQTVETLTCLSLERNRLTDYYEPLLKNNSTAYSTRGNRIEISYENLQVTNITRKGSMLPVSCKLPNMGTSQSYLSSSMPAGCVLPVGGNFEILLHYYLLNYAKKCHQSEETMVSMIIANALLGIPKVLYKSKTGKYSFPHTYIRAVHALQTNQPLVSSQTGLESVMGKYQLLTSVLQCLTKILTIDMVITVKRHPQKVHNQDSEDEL

[2] = molecular target: T2, 3xFlag-BBS1-GFP (human BBS1, expressed from CD615-3xFlag-BBS1-GFP) (human) (UniProt Q8NFJ9); experiment: co-IP
T2 sequence: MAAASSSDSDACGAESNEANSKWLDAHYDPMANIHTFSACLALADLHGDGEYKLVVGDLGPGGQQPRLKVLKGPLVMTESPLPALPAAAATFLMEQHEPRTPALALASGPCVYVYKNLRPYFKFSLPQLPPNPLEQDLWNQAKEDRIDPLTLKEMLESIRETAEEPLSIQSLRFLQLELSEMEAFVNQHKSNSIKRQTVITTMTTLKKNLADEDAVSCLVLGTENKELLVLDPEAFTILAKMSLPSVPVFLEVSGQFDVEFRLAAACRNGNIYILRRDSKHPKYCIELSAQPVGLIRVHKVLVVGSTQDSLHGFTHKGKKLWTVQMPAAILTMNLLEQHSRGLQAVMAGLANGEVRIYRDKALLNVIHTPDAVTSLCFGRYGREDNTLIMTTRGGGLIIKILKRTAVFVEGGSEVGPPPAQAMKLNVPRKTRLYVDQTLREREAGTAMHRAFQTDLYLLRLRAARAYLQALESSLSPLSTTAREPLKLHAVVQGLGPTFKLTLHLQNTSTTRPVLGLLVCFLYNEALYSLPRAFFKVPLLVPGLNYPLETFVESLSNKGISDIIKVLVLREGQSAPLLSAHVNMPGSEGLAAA

binding [1]: binds
binding [2]: binds
Substance: insulin receptor (from UniProt P06213 28-758; P06213 763-1382)
